# Results from article PMC9178012.
# Chains of the proteins cited; added tags and fusions are not shown. Lines headed by an entry give the natural chain unless they say otherwise; changes in a name come on top.
# UniProt P78527: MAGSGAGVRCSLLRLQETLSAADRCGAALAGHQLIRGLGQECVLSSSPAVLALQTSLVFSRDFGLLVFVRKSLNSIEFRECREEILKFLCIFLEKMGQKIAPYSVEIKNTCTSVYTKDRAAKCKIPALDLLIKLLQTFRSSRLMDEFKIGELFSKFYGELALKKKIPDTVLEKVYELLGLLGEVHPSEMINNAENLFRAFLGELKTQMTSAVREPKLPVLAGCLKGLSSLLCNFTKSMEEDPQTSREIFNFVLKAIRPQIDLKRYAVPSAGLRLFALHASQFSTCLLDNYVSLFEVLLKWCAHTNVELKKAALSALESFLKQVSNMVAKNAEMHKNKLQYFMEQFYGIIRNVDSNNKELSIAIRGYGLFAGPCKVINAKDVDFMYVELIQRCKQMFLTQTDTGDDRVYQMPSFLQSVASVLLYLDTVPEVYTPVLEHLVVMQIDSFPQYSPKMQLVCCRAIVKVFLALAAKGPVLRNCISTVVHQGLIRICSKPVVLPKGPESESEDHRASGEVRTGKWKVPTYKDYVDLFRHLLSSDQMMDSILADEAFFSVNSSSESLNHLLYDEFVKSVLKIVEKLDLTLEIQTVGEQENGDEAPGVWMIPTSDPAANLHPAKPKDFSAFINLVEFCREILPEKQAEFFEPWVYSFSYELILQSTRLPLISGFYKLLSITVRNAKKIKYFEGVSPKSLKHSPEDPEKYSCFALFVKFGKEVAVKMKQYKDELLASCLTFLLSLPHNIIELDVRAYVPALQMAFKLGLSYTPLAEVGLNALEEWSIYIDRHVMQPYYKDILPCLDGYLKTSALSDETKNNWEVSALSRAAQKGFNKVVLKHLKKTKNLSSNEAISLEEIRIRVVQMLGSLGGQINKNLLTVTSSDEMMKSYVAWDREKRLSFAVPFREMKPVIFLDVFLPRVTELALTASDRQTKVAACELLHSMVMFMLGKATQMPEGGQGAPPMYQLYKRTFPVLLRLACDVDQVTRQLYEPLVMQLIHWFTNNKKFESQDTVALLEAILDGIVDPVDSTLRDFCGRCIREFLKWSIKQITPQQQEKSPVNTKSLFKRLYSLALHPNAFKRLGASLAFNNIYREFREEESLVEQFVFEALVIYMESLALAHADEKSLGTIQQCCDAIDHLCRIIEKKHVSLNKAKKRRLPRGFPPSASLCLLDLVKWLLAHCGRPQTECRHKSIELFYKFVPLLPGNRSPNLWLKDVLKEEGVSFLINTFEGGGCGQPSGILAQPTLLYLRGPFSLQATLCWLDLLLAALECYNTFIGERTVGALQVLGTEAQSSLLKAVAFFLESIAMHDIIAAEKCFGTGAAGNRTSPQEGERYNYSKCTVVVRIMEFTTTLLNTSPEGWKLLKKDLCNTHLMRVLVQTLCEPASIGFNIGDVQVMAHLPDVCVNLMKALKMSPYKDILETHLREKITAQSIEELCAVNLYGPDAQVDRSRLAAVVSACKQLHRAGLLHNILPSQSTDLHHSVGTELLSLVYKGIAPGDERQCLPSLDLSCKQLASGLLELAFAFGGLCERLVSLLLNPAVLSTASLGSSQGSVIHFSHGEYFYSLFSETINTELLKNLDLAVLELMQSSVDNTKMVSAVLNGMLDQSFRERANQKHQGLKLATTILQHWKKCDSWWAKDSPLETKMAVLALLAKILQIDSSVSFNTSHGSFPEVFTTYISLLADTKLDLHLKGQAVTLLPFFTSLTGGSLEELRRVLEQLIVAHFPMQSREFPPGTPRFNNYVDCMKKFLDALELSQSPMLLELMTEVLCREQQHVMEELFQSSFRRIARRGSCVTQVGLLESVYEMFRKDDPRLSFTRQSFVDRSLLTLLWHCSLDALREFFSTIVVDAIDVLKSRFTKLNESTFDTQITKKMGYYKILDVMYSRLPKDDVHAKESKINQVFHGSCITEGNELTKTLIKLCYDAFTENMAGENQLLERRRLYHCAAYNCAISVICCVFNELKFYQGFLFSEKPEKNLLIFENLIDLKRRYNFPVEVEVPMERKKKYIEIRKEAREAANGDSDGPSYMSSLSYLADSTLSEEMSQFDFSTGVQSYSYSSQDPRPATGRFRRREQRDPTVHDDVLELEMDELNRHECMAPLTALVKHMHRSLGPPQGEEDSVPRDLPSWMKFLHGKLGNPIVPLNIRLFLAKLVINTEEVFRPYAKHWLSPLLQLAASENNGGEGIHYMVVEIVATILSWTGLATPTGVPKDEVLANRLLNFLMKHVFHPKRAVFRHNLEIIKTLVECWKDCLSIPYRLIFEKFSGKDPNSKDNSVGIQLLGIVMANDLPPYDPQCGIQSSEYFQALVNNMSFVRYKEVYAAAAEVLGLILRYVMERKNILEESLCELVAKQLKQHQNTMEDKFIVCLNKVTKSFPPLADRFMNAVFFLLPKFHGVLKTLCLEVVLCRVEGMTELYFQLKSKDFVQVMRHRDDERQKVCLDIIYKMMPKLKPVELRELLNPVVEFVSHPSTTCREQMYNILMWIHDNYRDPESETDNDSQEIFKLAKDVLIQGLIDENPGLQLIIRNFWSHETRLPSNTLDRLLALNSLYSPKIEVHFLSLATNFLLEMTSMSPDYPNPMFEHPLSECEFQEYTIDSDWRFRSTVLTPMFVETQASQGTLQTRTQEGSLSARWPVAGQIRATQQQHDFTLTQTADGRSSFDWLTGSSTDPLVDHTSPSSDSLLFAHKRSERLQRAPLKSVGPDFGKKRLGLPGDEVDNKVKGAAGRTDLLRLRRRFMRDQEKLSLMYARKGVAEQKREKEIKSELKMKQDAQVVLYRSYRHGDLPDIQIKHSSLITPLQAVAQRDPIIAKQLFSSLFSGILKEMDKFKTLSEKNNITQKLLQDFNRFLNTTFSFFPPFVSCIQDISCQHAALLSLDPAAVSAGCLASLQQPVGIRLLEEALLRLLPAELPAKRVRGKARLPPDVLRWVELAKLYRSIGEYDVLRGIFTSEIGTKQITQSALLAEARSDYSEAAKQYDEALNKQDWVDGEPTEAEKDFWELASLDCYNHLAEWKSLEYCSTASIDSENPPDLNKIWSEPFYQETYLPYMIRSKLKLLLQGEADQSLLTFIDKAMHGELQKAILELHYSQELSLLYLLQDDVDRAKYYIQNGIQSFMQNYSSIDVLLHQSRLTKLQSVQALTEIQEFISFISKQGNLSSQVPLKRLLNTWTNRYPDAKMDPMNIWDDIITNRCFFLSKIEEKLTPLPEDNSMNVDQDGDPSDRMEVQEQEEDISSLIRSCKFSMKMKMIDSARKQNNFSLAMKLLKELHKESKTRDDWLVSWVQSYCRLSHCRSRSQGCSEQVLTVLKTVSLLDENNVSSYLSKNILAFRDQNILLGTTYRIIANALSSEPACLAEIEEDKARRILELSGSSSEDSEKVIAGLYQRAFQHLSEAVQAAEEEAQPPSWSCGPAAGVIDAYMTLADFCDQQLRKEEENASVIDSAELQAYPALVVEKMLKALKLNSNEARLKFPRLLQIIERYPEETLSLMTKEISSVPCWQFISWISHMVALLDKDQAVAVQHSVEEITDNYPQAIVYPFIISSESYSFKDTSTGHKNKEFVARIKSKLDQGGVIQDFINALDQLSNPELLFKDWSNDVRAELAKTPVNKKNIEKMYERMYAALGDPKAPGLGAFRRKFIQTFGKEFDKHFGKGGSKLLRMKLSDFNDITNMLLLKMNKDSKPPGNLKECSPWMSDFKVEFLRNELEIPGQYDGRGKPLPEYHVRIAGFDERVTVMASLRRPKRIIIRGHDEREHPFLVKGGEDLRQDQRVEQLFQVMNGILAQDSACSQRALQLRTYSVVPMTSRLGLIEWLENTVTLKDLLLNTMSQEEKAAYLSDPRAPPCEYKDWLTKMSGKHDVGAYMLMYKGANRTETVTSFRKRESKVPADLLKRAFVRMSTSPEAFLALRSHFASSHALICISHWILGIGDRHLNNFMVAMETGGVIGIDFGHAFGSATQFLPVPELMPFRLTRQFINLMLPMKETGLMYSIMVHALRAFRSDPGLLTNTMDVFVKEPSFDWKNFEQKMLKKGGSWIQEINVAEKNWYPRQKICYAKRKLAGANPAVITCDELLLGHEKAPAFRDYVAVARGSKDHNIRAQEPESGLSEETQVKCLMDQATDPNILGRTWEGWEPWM
# UniProt P12956: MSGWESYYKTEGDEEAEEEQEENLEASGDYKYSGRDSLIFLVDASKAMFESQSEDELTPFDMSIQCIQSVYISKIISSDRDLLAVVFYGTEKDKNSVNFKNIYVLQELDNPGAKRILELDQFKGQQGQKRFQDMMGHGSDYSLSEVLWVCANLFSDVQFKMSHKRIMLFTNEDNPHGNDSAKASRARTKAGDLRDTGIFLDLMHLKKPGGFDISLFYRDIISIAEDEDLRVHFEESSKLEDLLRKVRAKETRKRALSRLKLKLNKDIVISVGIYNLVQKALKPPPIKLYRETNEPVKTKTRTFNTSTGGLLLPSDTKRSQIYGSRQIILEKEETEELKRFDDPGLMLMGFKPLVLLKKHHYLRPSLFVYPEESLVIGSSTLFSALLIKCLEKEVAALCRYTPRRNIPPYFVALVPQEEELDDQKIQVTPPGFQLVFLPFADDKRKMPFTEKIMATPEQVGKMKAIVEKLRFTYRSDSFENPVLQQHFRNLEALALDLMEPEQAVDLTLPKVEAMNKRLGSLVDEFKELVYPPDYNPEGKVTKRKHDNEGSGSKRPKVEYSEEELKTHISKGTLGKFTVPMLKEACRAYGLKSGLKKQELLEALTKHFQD
# UniProt Q13426: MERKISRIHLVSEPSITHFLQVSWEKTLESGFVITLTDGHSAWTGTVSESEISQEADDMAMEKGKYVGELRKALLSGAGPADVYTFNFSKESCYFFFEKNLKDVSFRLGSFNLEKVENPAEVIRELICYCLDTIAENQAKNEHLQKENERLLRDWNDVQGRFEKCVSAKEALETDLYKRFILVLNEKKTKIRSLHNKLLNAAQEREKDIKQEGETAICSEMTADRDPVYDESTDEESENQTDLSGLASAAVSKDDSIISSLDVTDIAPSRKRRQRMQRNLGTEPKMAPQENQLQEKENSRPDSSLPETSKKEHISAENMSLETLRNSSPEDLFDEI
# These are yes or no findings as the source states them, for the method shown. Binding seen in cells or lysates may run through a third protein. Some entries that bind do so weakly or less than the wild type. For some assays here: Tags and fused reporters may be left off the sequences shown.
# What was measured:
# [1] = molecular target: GFP-tagged wild-type RECQL4 (UniProt O94761); experiment: co-IP; GFP-tagged RECQL4 proteins immunoprecipitated with a GFP antibody from U2OS RECQL4 knockout cells expressing GFP-tagged WT or 6A RECQL4, 10 Gy with 10 min recovery; immunoblot
# [2] = molecular target: T1, GFP-tagged RECQL4-6A (UniProt O94761); experiment: as above
# T1 sequence: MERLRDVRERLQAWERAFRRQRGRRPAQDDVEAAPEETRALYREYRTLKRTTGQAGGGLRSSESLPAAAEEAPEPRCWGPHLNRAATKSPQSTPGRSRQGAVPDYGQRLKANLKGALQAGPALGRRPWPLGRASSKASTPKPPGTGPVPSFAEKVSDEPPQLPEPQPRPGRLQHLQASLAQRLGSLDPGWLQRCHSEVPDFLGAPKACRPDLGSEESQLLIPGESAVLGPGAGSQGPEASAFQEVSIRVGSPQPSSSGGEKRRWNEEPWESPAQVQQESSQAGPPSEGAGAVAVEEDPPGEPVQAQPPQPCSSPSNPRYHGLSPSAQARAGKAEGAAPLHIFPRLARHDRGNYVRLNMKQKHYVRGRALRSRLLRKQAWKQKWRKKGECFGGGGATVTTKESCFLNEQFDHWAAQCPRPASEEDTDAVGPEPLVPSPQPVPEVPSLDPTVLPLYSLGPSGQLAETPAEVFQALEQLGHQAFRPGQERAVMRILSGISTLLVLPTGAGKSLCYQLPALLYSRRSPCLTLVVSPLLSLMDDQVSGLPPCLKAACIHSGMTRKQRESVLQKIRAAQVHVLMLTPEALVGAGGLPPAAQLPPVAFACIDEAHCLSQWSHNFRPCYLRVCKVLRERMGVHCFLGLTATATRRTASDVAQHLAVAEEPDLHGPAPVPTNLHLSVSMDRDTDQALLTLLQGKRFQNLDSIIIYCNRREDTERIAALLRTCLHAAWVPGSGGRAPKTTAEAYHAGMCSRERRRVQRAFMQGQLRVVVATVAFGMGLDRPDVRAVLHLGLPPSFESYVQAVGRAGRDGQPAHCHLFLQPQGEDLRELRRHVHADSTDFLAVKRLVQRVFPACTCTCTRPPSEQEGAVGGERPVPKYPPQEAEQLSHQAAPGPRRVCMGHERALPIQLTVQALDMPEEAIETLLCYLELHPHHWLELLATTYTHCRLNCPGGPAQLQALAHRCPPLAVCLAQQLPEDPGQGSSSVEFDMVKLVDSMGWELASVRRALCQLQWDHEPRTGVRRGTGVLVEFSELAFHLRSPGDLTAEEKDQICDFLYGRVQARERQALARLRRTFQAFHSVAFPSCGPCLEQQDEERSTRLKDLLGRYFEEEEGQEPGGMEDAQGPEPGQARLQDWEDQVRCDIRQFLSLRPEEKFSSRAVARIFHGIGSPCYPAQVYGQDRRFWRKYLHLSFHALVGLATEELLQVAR
# [3] = molecular target: RECQL4 (human (endogenous in U2OS and HCT116)) (UniProt O94761)
Substance,binding [1],binding [2],binding [3]
DNA-PKcs (from UniProt P78527 1-4128),binds,binds,binds
Ku70/80 heterodimer (from UniProt P12956 1-609; P13010 1-732) (complex),binds,binds,binds
XRCC4 (from UniProt Q13426 1-336),binds,binds,
